# Measurements from patent publication EP0671413A1, “Somatostatin analogs for preventing NSAID-induced ulcers” (SANDOZ LTD, priority 1994, dated 1995).
# Not every detail of the peptide structures is certain; ends, links or a residue may be inferred.
# What was measured:
# [1] = test system: gastric lesions induced by Indomethacin; test: Inhibition of Indomethacin-induced gastric lesions; assay type: in vivo; conditions: male rats; test compound s.c. at ca. 0.01 to 10 ng/kg, 30 min before Indomethacin 10 mg/kg orally; killed after 4 hours; compared with placebo control groups
# NSAID induced injury = test: Clinical trial I: Indomethacin-induced gastroduodenal injury in healthy volunteers, graded by endoscopy; assay type: in vivo, healthy adult volunteers; conditions: 0.01, 0.1 or 1.0 µg subcutaneously for 3 days with 50 mg Indomethacin po tid, linear association test
smiles,measurement,setting,value
C[C@@H](O)[C@@H]1NC(=O)[C@H](CCCCN)NC(=O)[C@@H](Cc2c[nH]c3ccccc23)NC(=O)[C@H](Cc2ccccc2)NC(=O)[C@@H](NC(=O)[C@H](N)Cc2ccccc2)CSSC[C@@H](C(=O)N[C@H](CO)[C@@H](C)O)NC1=O [octreotide],inhibition of gastric lesions induced by Indomethacin,[1],substantial inhibition
same,"correlation between the octreotide dose and injury grade, duodenum",NSAID induced injury; p < 0.01,negative correlation
same,"correlation between the octreotide dose and injury grade, gastric",NSAID induced injury; p < 0.03,negative correlation
